US11919880B2, “HCV protease inhibitors” (The Regents of the University of California, priority 2020, dated 2024)
For at least one compound, name, drawing or mass did not settle the structure.

Sequences of proteins named here, by UniProt entry; tags and fusion partners are left off. Residues count along the entry.
UniProt P00772, 27-266: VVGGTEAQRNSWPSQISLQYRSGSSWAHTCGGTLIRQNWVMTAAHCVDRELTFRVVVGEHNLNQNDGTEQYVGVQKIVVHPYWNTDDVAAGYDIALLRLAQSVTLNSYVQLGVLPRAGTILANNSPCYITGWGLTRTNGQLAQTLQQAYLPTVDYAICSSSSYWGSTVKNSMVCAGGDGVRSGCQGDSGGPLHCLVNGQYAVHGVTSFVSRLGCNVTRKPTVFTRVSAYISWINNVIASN
UniProt P06873, 106-384: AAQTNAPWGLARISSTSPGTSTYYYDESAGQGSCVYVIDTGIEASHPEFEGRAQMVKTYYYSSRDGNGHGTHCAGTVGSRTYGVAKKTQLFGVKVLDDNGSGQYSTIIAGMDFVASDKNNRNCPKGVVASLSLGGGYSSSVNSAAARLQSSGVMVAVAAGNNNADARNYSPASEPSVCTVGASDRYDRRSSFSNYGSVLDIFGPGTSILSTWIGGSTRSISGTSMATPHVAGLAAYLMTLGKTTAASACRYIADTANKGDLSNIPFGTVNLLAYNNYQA
UniProt P00760, 24-246: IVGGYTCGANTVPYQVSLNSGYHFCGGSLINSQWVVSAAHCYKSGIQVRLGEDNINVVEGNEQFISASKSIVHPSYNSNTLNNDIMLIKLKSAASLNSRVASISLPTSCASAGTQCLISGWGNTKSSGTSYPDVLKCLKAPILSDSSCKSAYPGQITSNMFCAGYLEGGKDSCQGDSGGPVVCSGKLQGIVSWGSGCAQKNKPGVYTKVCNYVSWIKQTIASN
UniProt P17538, 19-263: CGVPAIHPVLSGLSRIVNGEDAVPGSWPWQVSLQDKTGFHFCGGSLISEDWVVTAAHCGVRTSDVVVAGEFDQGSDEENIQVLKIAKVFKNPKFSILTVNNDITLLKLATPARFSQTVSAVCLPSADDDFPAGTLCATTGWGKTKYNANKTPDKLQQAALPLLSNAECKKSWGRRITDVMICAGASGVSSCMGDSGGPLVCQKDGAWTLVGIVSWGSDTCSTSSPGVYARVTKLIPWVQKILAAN

Experiments:
pig pancreatic elastase = target: T1, pig pancreatic elastase (Sus scrofa, UniProt P00772); assay: Counter-screening assay, elastase; format: biochemical; conditions: 13.08 and 14.68, 5.2 μM of 1, 12, and 22, respectively; 40 nM enzyme
T1 construct: purchased Sigma
Experimental: (§1) In addition, we tested these compounds for inhibition against the fungal serine protease, proteinase K that is structurally related to several mammalian serine proteases such as the proprotein convertase enzymes and furin^44.
(§2) Counter-screening assay. Counter-screening assays were performed with 40 nM of bovine trypsin (Sigma), pig pancreatic elastase (Sigma), human chymotrypsin and proteinase k and 60 μM of the appropriate fluorogenic substrates for trypsin, elastase, chymotrypsin, and proteinase K are Boc-Leu-Arg-Arg-AMC (trypsin), Me-Arg-Arg-Pro-Val-AMC (elastase) and Suc-Arg-Arg-Pro-Phe-AMC (chymotrypsin and proteinase K). Assays were performed in 50 mM HEPES pH 7.4, 15 mM NaCl, 0.01% Triton X-100 in black 96-well microplates (BD Falcon) at a final volume of 50 μL. The final concentration of DMSO in each well was 2.5%. Fluorescence was measured as outlined above.

proteinase K = proteinase K (Parengyodontium album, UniProt P06873); assay: Counter-screening assay, proteinase K; format: biochemical, fungal; conditions: 13.08 and 14.68, 5.2 μM of 1, 12, and 22, respectively; 40 nM enzyme
Experimental: as §1, §2

[1] = system: full-length HCV NS3/4A GT1b D168A; format: biochemical, hepatitis C virus; conditions: result in words
Experimental: In order to validate that this group of molecules elicit their cellular effects via inhibition of the viral protease, we incubated compounds 1, 12 and 22 with recombinant NS3/4A protease GT1b and an inhibitor-resistant mutant containing a D168A mutation. D168 is located in the S2 and S4 sub-pockets and mutations in these sub-pockets can cause significant resistance to the inhibitors resulting in decreased activity of peptidomimetic inhibitors^21,37-38. […] As a control, potency was evaluated using the approved HCV protease inhibitor, simeprevir.
Plasmid construction and purification of HCV NS3/A protein. Drug resistant mutant D168A was generated by mutagenesis using NS3-containing recombinant plasmid (pETDuet-1 Hepatis C Virus NS3/4A, a gift from Michael Johnson, Addgene plasmid #16196) as a template. […]
HCV NS3/4A enzymatic inhibition assay. The activities of two proteases (recombinant HCV NS3/4A GT1b WT and full-length HCV NS3/4A GT1b D168A) were measured using a fluorogenic substrate, Ac-Glu-Glu-Val-Val-Ala-Cys-AMC (Sigma-Aldrich) where AMC corresponds to 7-amino-4-methylcourmarin. […] Fluorescence was monitored at excitation and emission wavelengths of 360 nm and 460 nm in a Synergy™ HTX Multi-Mode Microplate Reader (BioTek). […] The activity of enzyme was calculated from the change in relative fluorescence units (RFU) over time. […]

bovine trypsin = target: T2, bovine trypsin (Bos taurus, UniProt P00760); assay: Counter-screening assay, trypsin; format: biochemical; conditions: 13.08 and 14.68, 5.2 μM of 1, 12, and 22, respectively; 40 nM enzyme
T2 construct: purchased Sigma
Experimental: as §1, §2

human chymotrypsin = human chymotrypsin (Homo sapiens, UniProt P17538); assay: Counter-screening assay, chymotrypsin; format: biochemical; conditions: 13.08 and 14.68, 5.2 μM of 1, 12, and 22, respectively; 40 nM enzyme
Experimental: as §1, §2

Compound	Decrease of elastase activity (pig pancreatic elastase)	Decrease of proteinase K activity (proteinase K)	Change in potency, D168A mutant versus wt protease [1]	Decrease of trypsin activity (bovine trypsin)	Decrease of chymotrypsin activity (human chymotrypsin)
CC(C)c1ccc(NC(=O)NC(Cc2c[nH]c3ccccc23)C(=O)NCCCN2CCCC[C@@H]2C)cc1 (stereo partly drawn) [Compound 12]	did not decrease activity	did not decrease activity	no significant change in potency	did not decrease activity	
C[C@H]1CCCCN1CCCNC(=O)C(Cc1c[nH]c2ccccc12)NC(=O)Nc1cccc(Br)c1 (stereo partly drawn) [Compound 1]	did not decrease activity	did not decrease activity	no significant change in potency	did not decrease activity	did not decrease activity
